# In PubChem BioAssay AID2685 (National Center for Advancing Translational Sciences (NCATS), 2010):
# The other results are listed elsewhere or left out. These are further read-outs of the screen, such as a control signal, another cell line or another target. No call is given for them. Compounds called inactive in the main read-out are mostly missing here. The note in brackets gives the kind of curve behind each potency; many fits are weak.
# Test: qHTS Assay for Lipid Storage Modulators in Drosophila S3 Cells;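 as to cell number change: cells counted by Cell Tracker Red CMTPX staining in the red channel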
# Conditions: BODIPY lipid droplet fluorescence, 18-24 h; for cell number change: measured here: cell count max response, cells fed with added oleic acid
# Method in brief: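 Drosophila S3 cells loaded with oleic acid (400 uM, as added) and compounds at several concentrations; lipid droplets imaged by 488-nm laser-scanning cytometry, 500–530 nm intensity and object ratio to cell channel. Percent activity normalized to 20 uM Triacsin C.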
# [1] = measured here: lipid fluorescence (Fed channel) AC50, cells fed with added oleic acid
# [2] = measured here: cell number channel AC50, cells fed with added oleic acid
SMILES,cell number change [%],AC50 [1],AC50 [2]
CC(C)OCC1Cn2c(nc3c2c(=O)n(C)c(=O)n3C)O1 (stereo unspecified),-21.6,"517 nM [falling, full curve, poor fit]",
O=[N+]([O-])c1cc(C(F)(F)F)ccc1Oc1cccnc1[N+](=O)[O-],-21.6,"3660 nM [falling, full curve, poor fit]",
CSc1ccc(C(=O)/C=C/c2ccc(N)cc2)cc1,-11.7,"4110 nM [falling, single point]",
COc1ccc2ccccc2c1/C=N/NC(=O)c1nnn(-c2nonc2N)c1C(C)C,-8.73,"580 nM [rising, single point]",
CC(NC(=O)Cc1ccsc1)c1ccc(Cl)cc1Cl (stereo unspecified),-19.7,"5620 nM [falling, single point]",
Cc1cccc(Cn2c(C(C)(C)C)cc3cccnc32)c1,,,"3660 nM [falling, single point]"
CC(=O)c1cccc(NC(=O)COC(=O)COc2c(Cl)cc(Cl)c3ccc(C)nc23)c1,9.89,"366 nM [rising, full curve, poor fit]",
Cc1cccc(OCc2ccc(C(=O)Nc3cc(C)on3)o2)c1,81.9,"206 nM [rising, single point]","8200 nM [rising, partial curve]"
COc1ccc(OC)c(CN2CCCCCC2)c1,2.7,,
CCNC(=S)N(CCCO)Cc1cc2cc3c(cc2[nH]c1=O)OCCO3,-12.2,"5170 nM [falling, partial curve]",
N=C1c2ccccc2CN1NC(=O)c1cccc(S(=O)(=O)N2CCOCC2)c1,5.7,"164 nM [rising, full curve, poor fit]",
c1ccc(-c2nnc(CSc3ccc4c(c3)OCCO4)o2)cc1,21.9,"3260 nM [rising, single point]","3660 nM [rising, single point]"
Cc1ccc(/C=N/n2c(-c3cccnc3)n[nH]c2=S)o1,-39.4,,"1840 nM [falling, partial curve, poor fit]"
COc1ccc(CC(=O)n2nc(-c3cccnc3)nc2N)cc1,18.1,"2060 nM [rising, single point]",
CN1CCN(S(=O)(=O)CC2(C)C3CCC2(C)C(=O)C3Br)CC1 (stereo unspecified),-44.6,,"103 nM [falling, full curve, poor fit]"
CC(/C=C(\NC(=O)c1ccccc1)C(=O)N=Nc1c(O)[nH]c2ccc(C)cc12)=C\c1ccccc1,36.6,"1640 nM [rising, full curve]","206 nM [rising, full curve]"
Cc1cc(NC(=O)CSc2nc(=O)n(CCN(C)C)c3c2CCCC3)no1,-2.88,,
COc1cccc(C(O)c2nc3ccccc3n2C(C)C)c1 (stereo unspecified),14.5,"6510 nM [falling, single point]","1160 nM [falling, partial curve]"
C=CCn1c(C)cc(C(=O)CSc2nnc(-c3cccc(S(=O)(=O)N(CC)CC)c3)o2)c1C,,"820 nM [rising, single point]",
COc1ccc(-n2cnnc2SCC(=O)c2ccc(S(=O)(=O)N3CCOCC3)cc2)cc1,,"580 nM [rising, full curve, poor fit]",

SMILES,cell number change [%],AC50 [1],AC50 [2]
O=[N+]([O-])c1cc(/C=N/n2c(-c3cccnc3)n[nH]c2=S)ccc1Cl,-3.5,"29100 nM [falling, single point]",
Cc1cc2cc(CNC(=O)c3cccs3)ccc2n1C,-52.6,"14600 nM [falling, partial curve, poor fit]","11600 nM [falling, partial curve, poor fit]"
Cc1ccc(C(=O)N/C(=C/c2ccco2)C(=O)OCN2C(=O)c3ccccc3C2=O)cc1,0.422,"1300 nM [rising, full curve, poor fit]",
NC(=O)CC(NC(=O)c1ccccc1)c1ccc(N2CCC(Cc3ccccc3)CC2)c([N+](=O)[O-])c1 (stereo unspecified),-41.6,,"25900 nM [falling, single point]"
CC(C)c1nnc(NC(=O)C2CCN(C(=O)c3ccco3)CC2)s1,20.8,,
COc1cc(C2/C(=C(\O)c3ccc4c(c3)CC(C)O4)C(=O)C(=O)N2CCN2CCOCC2)cc(OC)c1OC (stereo unspecified),-14.2,,
O=C(Nc1ccccc1Oc1ccccc1)c1cccc([N+](=O)[O-])c1,16.5,,"103 nM [rising, full curve, poor fit]"
O=C(NC1CCCCCC1)c1cc2n(n1)C(C(F)(F)F)CC(c1ccco1)N2 (stereo unspecified),-30,,"5800 nM [falling, full curve, poor fit]"
c1ccc(N2CCN(C3CC4CCC3C4)CC2)cc1 (stereo unspecified),-25.4,,
CCn1c(COc2cccc(C)c2)nnc1SCC(=O)CC(=O)Nc1ccccc1OC,-0.619,"366 nM [rising, full curve, poor fit]",
O=C(CSc1cccc[n+]1[O-])NCC1CCCCC1,21.5,"3260 nM [rising, single point]","1840 nM [rising, partial curve, poor fit]"
COc1ccc(OCC(=O)OC2CCN(C)CC2)cc1,5.32,,
COc1ccc(NS(=O)(=O)c2ccc(OC)c3ccccc23)cn1,-21.5,"16400 nM [falling, single point]",
O=C(CCl)Nc1cccc(-c2cnc3ccccc3n2)c1,-84,,"29100 nM [falling, single point]"
Nn1c(SCc2ccc([N+](=O)[O-])cc2)nc2ccccc2c1=O,-21.9,"4110 nM [falling, full curve, poor fit]","2310 nM [falling, full curve, poor fit]"
CC(C)COc1ccc(CNC(=S)NCc2ccccc2)cc1,-17.4,"6510 nM [rising, single point]","2910 nM [rising, partial curve]"
Nc1c(C(=O)NCc2ccc3c(c2)OCO3)nnn1Cc1cccc(F)c1,58.2,"580 nM [rising, full curve]","1840 nM [rising, partial curve, poor fit]"
CN1C(=O)Cc2cc(S(=O)(=O)N3CCN(c4ccccc4F)CC3)ccc21,21.4,"4110 nM [falling, single point]",
COc1ccccc1N1CC(C(=O)Nc2nnc(SCC(=O)N3CCOCC3)s2)CC1=O (stereo unspecified),17.1,,
CCOC(=O)N1CCN(c2c(N3CCc4ccccc4C3)c(=O)c2=O)CC1,,"2060 nM [rising, partial curve]",

# 3 entries from above, bar-delimited:
SMILES | cell number change [%] | AC50 [1] | AC50 [2]
Cc1cccc(OCc2ccc(C(=O)Nc3cc(C)on3)o2)c1 | 81.9 | 206 nM [rising, single point] | 8200 nM [rising, partial curve]
Cc1ccc(/C=N/n2c(-c3cccnc3)n[nH]c2=S)o1 | -39.4 |  | 1840 nM [falling, partial curve, poor fit]
O=C(CSc1cccc[n+]1[O-])NCC1CCCCC1 | 21.5 | 3260 nM [rising, single point] | 1840 nM [rising, partial curve, poor fit]

# Later entries:

SMILES,cell number change [%],AC50 [1],AC50 [2]
CC(C)Cn1c(-c2ccco2)nc2c(c(=O)c3ccccc3n2C)c1=O,-21.8,"461 nM [rising, full curve]","6510 nM [rising, single point]"
CCOCCn1c(CN2CCN(CCO)CC2)nc2c1c(=O)n(C)c(=O)n2C,14.4,"29100 nM [rising, single point]",
COc1ccccc1CNC(=O)COC(=O)Cc1ccc(Cl)cc1,-10.5,"130 nM [falling, full curve, poor fit]","103 nM [falling, full curve, poor fit]"
CCc1sc(C(=O)Nc2nccs2)cc1C,12.6,,
COC(=O)c1ccc(C(=O)Nc2nnc(-c3cccnc3)o2)cc1,8.27,"820 nM [rising, full curve, poor fit]",
CC(C)(C)OC(=O)NCCCCCc1nnc(SCc2c(F)cccc2Cl)o1,17.7,,"103 nM [rising, full curve, poor fit]"
O=C(O)Cc1ccc(N=Nc2c(O)c(C(=O)O)cc3ccccc23)cc1,4.1,,"164 nM [falling, single point]"
O=C(NCc1ccco1)c1ccc2c(c1)C(=O)c1ccccc1-2,-43.9,"517 nM [rising, single point]","32600 nM [falling, single point]"
Cc1noc(C)c1CSCC(=O)Nc1nc2ccc(F)cc2s1,-7.74,,
COc1ccc(NC(=O)NNC(=O)c2cc3ccccc3cc2O)cc1,1.74,,
Cn1c(=O)[nH]c(=O)c2c1nc(N1CCCCCC1)n2CCOc1ccccc1,31.4,,"32600 nM [rising, single point]"
Sc1oc(-c2ccccc2)cc1C=Nc1ccccc1,-33.8,"29100 nM [falling, partial curve]","8200 nM [falling, partial curve]"
COc1cc(CNC(=O)c2ccc(Cn3nc(C)c(Cl)c3C)o2)cc(OC)c1,-13,"6510 nM [rising, single point]",
Cn1c(=O)n(CCO)c(=O)c2c1nc(Br)n2Cc1ccccc1,14,"651 nM [falling, single point]","3660 nM [rising, partial curve, poor fit]"
O=Cc1ccc(-c2ccc(Cl)cc2Cl)[nH]1,-8.97,"65.1 nM [falling, full curve, poor fit]",
Cc1cc(NC(=O)CSc2nccn2-c2cccc(C)c2C)no1,,"1300 nM [falling, partial curve, poor fit]",
Cc1ccc(S(=O)(=O)N2CCN(C(=O)COC(=O)c3ccccc3Cl)CC2)c(C)c1,15.7,"731 nM [rising, partial curve, poor fit]","3660 nM [falling, single point]"
Cc1ccccc1N1CCN(C(=O)NCc2cccc(Cl)c2)CC1,7.98,"206 nM [falling, single point]",
